Experimental data published in the supplement of paper PMC12819154, “High-throughput peptide-centric local stability assay extends protein–ligand identification to membrane proteins, tissues and bacteria” (Nature Structural & Molecular Biology, 2025).
This is one part of the list. Most entries show no effect beyond the scatter of the controls.

Protein sequences, listed by entry. Tags and fused reporters are not part of them. Lines headed by an entry give the natural chain unless they say otherwise; changes in a name come on top.
UniProt P56645: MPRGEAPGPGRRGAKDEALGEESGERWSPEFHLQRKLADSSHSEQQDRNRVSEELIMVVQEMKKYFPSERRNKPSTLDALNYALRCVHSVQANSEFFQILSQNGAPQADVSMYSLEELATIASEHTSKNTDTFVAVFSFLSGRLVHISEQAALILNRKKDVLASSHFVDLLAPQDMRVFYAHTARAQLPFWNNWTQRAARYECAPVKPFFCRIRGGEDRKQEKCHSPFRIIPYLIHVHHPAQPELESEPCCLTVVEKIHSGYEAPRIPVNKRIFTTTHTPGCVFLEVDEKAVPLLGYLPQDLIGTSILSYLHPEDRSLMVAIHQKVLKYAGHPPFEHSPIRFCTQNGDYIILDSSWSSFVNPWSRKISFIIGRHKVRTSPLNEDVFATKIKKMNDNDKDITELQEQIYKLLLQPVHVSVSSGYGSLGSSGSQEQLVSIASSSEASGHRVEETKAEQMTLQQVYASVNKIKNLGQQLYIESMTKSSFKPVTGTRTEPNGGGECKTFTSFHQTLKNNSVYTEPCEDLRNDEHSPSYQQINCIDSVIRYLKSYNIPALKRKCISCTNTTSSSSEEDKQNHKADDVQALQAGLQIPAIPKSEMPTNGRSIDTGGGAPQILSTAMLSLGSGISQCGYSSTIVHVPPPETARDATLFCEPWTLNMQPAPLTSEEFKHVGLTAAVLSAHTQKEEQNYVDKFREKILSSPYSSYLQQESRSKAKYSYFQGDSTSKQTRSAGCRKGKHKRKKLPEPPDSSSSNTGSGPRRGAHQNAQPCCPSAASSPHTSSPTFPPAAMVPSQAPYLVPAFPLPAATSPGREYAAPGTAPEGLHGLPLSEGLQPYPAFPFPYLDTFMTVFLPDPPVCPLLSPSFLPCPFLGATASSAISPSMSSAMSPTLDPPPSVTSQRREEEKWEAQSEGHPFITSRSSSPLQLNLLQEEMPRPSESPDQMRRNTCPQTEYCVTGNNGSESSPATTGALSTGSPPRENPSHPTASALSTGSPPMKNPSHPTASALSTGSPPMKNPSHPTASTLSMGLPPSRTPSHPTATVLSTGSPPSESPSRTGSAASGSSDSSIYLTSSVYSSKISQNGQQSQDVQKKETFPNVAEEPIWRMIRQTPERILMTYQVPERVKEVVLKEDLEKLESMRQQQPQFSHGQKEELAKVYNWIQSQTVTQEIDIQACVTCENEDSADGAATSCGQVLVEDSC
UniProt P60891: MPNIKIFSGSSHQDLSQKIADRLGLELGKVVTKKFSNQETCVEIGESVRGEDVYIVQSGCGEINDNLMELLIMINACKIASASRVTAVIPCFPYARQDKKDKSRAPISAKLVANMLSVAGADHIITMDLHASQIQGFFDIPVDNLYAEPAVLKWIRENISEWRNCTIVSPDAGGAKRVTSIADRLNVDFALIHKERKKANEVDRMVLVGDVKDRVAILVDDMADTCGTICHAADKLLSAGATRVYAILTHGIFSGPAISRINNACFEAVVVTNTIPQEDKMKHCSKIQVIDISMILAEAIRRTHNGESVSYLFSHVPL
UniProt P78332: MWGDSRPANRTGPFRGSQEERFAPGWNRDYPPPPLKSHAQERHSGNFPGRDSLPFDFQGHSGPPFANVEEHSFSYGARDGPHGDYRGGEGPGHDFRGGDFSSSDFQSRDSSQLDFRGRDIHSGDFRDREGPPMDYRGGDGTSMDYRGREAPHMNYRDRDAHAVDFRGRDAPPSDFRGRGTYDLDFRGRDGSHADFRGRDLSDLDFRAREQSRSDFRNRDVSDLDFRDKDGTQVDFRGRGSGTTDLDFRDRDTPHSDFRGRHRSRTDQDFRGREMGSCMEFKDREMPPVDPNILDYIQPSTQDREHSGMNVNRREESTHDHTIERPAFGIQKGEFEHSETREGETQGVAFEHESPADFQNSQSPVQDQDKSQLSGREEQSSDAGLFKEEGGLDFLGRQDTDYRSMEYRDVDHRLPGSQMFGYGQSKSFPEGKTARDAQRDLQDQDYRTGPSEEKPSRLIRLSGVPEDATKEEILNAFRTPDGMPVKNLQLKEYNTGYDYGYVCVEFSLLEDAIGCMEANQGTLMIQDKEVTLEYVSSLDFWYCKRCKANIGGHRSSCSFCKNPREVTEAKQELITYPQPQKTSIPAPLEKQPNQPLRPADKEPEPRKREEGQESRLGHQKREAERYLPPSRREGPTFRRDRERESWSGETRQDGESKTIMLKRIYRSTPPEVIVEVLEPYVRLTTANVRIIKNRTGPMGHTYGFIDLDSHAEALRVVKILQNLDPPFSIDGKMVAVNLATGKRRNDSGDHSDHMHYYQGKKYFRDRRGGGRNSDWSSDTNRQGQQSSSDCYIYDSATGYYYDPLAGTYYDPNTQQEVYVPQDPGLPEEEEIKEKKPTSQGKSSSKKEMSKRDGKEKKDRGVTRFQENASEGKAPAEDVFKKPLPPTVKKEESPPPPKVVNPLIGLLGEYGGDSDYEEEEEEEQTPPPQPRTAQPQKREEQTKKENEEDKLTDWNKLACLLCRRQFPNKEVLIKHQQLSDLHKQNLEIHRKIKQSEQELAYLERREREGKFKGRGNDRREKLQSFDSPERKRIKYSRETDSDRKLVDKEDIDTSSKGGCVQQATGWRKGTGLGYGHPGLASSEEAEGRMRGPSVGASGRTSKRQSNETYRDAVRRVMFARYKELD
UniProt P69905, whole entry: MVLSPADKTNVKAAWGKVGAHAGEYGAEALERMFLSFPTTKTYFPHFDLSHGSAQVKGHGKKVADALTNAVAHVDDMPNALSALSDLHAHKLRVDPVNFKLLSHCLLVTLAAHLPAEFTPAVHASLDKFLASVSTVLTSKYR
UniProt P63165, whole entry: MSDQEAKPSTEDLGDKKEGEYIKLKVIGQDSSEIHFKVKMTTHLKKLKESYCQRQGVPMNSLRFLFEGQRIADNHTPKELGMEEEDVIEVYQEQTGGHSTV
UniProt P82979: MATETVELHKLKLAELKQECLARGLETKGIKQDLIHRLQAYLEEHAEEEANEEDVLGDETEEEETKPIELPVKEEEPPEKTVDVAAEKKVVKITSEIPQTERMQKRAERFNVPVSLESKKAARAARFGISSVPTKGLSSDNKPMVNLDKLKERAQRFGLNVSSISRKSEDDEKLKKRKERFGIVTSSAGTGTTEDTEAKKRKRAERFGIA
UniProt P58005: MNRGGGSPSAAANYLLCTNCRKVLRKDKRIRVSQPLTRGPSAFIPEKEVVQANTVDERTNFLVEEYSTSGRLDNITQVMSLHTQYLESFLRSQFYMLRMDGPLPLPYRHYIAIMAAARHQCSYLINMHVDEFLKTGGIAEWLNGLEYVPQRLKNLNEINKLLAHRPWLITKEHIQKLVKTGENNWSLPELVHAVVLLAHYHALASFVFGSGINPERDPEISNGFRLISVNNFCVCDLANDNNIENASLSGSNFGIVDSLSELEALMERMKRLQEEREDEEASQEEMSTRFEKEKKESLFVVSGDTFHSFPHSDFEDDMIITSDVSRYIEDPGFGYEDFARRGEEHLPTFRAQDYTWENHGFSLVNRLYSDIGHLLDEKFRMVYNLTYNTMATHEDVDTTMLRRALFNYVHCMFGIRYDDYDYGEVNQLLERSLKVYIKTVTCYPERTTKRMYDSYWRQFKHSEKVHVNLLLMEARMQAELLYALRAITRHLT
UniProt P61764, whole entry: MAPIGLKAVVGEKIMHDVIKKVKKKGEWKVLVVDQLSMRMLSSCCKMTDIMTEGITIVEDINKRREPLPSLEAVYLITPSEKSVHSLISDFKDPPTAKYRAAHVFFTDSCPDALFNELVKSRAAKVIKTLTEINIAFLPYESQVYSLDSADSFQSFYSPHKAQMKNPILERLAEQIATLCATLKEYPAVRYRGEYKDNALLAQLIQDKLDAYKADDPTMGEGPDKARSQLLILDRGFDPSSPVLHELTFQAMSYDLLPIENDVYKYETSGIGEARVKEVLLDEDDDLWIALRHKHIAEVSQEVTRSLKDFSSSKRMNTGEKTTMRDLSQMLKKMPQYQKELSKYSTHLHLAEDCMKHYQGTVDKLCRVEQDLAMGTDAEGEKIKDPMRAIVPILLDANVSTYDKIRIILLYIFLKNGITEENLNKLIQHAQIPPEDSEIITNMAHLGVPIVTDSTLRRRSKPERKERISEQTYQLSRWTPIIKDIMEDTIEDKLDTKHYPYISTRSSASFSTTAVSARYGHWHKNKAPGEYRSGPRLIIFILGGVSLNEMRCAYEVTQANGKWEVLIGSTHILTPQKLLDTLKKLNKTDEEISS
UniProt P83111: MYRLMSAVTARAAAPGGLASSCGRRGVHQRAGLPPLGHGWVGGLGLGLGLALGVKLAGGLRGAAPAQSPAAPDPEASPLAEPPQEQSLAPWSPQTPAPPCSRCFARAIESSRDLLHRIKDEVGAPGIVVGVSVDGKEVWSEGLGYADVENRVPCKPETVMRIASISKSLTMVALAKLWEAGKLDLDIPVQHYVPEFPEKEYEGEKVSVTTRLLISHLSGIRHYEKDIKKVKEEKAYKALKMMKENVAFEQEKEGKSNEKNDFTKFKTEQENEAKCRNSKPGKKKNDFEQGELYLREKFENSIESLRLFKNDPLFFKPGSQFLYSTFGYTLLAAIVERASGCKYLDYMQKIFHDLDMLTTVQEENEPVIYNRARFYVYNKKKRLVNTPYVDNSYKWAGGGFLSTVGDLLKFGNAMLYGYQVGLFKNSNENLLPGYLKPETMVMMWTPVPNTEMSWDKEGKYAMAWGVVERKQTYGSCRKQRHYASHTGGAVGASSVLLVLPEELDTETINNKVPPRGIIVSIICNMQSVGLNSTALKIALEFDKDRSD
UniProt P61604, whole entry: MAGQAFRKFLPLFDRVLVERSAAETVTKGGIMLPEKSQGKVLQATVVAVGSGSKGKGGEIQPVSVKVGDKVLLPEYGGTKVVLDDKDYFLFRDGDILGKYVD
UniProt P79522: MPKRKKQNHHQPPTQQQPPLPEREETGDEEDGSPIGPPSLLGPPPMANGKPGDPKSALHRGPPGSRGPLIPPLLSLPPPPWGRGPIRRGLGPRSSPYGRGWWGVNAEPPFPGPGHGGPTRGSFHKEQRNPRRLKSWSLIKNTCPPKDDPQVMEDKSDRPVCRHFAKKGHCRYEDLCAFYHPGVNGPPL
UniProt P56385: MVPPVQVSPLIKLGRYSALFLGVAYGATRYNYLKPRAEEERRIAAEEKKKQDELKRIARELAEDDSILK
UniProt P62195, whole entry: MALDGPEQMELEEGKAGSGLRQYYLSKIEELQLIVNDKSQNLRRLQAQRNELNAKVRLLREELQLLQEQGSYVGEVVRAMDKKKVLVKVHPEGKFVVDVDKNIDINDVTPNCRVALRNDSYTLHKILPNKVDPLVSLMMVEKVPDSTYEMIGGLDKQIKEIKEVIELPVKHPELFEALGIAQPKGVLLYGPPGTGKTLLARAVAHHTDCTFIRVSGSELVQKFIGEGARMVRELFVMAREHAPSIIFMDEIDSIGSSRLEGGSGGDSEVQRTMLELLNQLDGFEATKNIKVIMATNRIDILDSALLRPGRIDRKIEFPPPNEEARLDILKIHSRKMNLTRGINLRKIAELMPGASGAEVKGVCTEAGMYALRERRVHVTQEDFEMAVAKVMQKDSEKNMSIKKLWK
UniProt P55795: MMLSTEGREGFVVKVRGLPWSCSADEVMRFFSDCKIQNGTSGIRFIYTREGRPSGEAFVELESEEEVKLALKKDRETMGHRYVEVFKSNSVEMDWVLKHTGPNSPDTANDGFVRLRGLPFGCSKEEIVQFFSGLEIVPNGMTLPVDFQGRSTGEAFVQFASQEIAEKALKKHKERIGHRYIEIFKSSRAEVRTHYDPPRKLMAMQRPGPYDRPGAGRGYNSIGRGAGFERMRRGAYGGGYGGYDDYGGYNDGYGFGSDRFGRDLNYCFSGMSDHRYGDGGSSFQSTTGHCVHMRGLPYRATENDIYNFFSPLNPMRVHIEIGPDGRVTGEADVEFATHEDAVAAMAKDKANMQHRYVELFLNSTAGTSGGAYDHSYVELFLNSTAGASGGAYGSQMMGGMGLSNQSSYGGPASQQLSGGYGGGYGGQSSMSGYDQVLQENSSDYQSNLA
UniProt P61081: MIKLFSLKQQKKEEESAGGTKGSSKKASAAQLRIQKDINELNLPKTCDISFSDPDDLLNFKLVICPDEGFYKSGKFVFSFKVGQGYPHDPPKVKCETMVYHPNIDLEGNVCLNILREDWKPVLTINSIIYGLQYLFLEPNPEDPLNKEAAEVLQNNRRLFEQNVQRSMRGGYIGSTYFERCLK
UniProt P58557: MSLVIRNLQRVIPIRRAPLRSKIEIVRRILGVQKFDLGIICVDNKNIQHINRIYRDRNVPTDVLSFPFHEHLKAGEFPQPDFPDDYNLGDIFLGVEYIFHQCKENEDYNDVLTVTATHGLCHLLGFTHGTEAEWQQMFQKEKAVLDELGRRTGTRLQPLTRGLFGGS
UniProt P59780: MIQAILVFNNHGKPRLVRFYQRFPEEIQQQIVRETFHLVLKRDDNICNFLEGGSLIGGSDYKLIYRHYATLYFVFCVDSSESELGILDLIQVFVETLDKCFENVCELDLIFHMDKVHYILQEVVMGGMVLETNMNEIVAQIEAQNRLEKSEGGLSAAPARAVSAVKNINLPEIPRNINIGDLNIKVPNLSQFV
UniProt P62306, whole entry, looked up: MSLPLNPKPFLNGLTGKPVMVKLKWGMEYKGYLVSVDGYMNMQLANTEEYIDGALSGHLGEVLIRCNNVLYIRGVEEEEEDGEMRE

Compound: CN[C@@H]1C[C@H]2O[C@@](C)([C@@H]1OC)n1c3ccccc3c3c4c(c5c6ccccc6n2c5c31)C(=O)NC4 [staurosporine]
Test: log2 fold change of tryptic peptide abundance, ligand vs vehicle (limited proteolysis) (log2 ratio); higher = more trypsin-susceptible (destabilized)
Conditions: ligand concentration: 20 uM; sample: K562 cleared lysate; digestion: 4 min, 22 C (HT-PELSA RT4min, Orbitrap Astral)

| Target | log2 fold change |
| --- | --- |
| PER3 (peptide sequence: ILMTYQVPER, peptide start residue: 1115) (UniProt P56645) | -0.13 |
| UniProt P60891 (peptide sequence: RVTSIADRLNVDFALIHK, peptide start residue: 177) | -0.235 |
| PPIA (peptide sequence: IIPGFMCQGGDFTRHNGTGGK, peptide start residue: 56) (UniProt P62937) | 1.15 |
| P62737 (peptide sequence: MQKEITALAPSTMK, peptide start residue: 313) (UniProt P62736) | 0.246 |
| PEX3 (peptide sequence: HSLSLLDLEQK, peptide start residue: 198) (UniProt P56589) | -0.261 |
| RBM6 (peptide sequence: EGPPMDYR, peptide start residue: 129) (UniProt P78332) | 0.416 |
| UniProt P62753 (peptide sequence: GCIVDANLSVLNLVIVK, peptide start residue: 99) | -0.302 |
| GSTO1 (peptide sequence: HEVININLK, peptide start residue: 49) (UniProt P78417) | 0.388 |
| HBA1 (peptide sequence: VGAHAGEYGAEALER, peptide start residue: 18) (UniProt P69905) | -0.22 |
| UniProt P63165 (peptide sequence: LKESYCQR, peptide start residue: 47) | 0.115 |
| RPL7A (peptide sequence: GDVPTKRPPVLR, peptide start residue: 126) (UniProt P62424) | 0.148 |
| SARNP (peptide sequence: KSEDDEKLK, peptide start residue: 167) (UniProt P82979) | 0.222 |
| UniProt P58005 (peptide sequence: HYIAIMAAAR, peptide start residue: 113) | -0.266 |
| UniProt P61764 (peptide sequence: AIVPILLDANVSTYDKIR, peptide start residue: 389) | 0.597 |
| LACTB (peptide sequence: FKTEQENEAK, peptide start residue: 265) (UniProt P83111) | -0.717 |
| UniProt P62266 (peptide sequence: KGHAVGDIPGVR, peptide start residue: 108) | 0.164 |
| HSPE1 (peptide sequence: GGIMLPEK, peptide start residue: 29) (UniProt P61604) | -0.171 |
| PRR3 (peptide sequence: NTCPPKDDPQVMEDK, peptide start residue: 141) (UniProt P79522) | -0.225 |
| PSMD4 (peptide sequence: VSMEEQR, peptide start residue: 222) (UniProt P55036) | -0.126 |
| UniProt P56385 (peptide sequence: VPPVQVSPLIK, peptide start residue: 2) | 0.358 |
| UniProt P62195 (peptide sequence: TMLELLNQLDGFEATK, peptide start residue: 272) | -0.319 |
| HNRNPH2 (peptide sequence: YGDGGSSFQSTTGHCVHMR, peptide start residue: 276) (UniProt P55795) | -0.241 |
| UniProt P61353 (peptide sequence: YSVDIPLDKTVVNK, peptide start residue: 85) | -0.191 |
| UniProt P61081 (peptide sequence: VGQGYPHDPPK, peptide start residue: 82) | 0.25 |
| ACTR3 (peptide sequence: KEFSIDVGYER, peptide start residue: 265) (UniProt P61158) | 0.749 |
| YBEY (peptide sequence: NVPTDVLSFPFHEHLK, peptide start residue: 58) (UniProt P58557) | 0.119 |
| UniProt P59780 (peptide sequence: NINLPEIPR, peptide start residue: 167) | -0.125 |
| UniProt P83881 (peptide sequence: KIVLRLECVEPNCR, peptide start residue: 65) | -0.247 |
| UniProt P62306 (peptide sequence: GVEEEEEDGEMRE, peptide start residue: 74) | -0.241 |

Quoted at random: 2 entries already listed, in no set order.

| Target | log2 fold change |
| --- | --- |
| YBEY (peptide sequence: NVPTDVLSFPFHEHLK, peptide start residue: 58) (UniProt P58557) | 0.119 |
| PEX3 (peptide sequence: HSLSLLDLEQK, peptide start residue: 198) (UniProt P56589) | -0.261 |
